Test results: patent US20040043904A1, “N-(4-pyrazolyl) amide derivatives, chemicals for agricultural and horticultural use, and usage of the same” (priority 2003, published 2004)
Some of these results come from one statement about several compounds together. For some assays here: At least one compound was matched to its structure with a doubt left. Some ranges recur; such a range may be that of the whole group of compounds.

Tests used:
Assay type in all cases: in vivo
[1] = tested on: green peach aphid (Myzus persicae); assay: Insecticidal effect on green peach aphid (Test Example 7); settings: 500 ppm, stems and leaves of Chinese cabbage sprayed, parasites counted six days after spraying
From the text: Insecticidal Effect on Green Peach Aphid (Myzus persicae)
A Chinese cabbage plant was planted in each of plastic pots with a diameter of 8 cm and a height of 8 cm, and green peach aphids were propagated on the plant. The number of parasites of each pot was counted.
Then, the stems and leaves were sufficiently sprayed with the test solution. After air-drying, the pots were allowed to stand in a greenhouse.
Control efficacy (%)=100[(T×Ca)/(Ta×C)]×100
Ta: number of parasites before spraying in treated group,
T : number of parasites after spraying in treated group,
Ca: number of parasites before spraying in untreated group,
[…]: number of parasites after spraying in untreated group.

[2] = tested on: diamond back moth (Plutella xylostella); assay: Insecticidal effect on diamond back moth (Test Example 6); settings: 500 ppm, Chinese cabbage seedling with eggs immersed about 30 seconds, 25° C., hatched insects counted six days after immersion
[3] = tested on: apple scab (Venturia inaequalis); assay: Control effect on apple scab (Test Example 1); settings: potted apple seedling (cultivar: Ohrin), stalks and leaves sprayed with test solution of prescribed concentration, inoculated after one day, judged two weeks after inoculation
[4] = tested on: Chinese cabbage black spot (Alternaria brassicae); assay: Controlling effect on Chinese cabbage black spot (Test Example 3); settings: potted Chinese cabbage at the 1.5 leaf stage (cultivar: Muso), sprayed with test solution of prescribed concentration, inoculated after one day, judged seven days after inoculation
[5] = tested on: powdery mildew fungus (Erysiphe graminis hordei); assay: Controlling effect on barley powdery mildew (Test Example 5); settings: potted barley at the 1.5 leaf stage (cultivar: Kanto No. 6), sprayed with test solution of prescribed concentration, inoculated after one day, judged seven days after inoculation
[6] = tested on: tomato late blight (Phytophthora infestans); settings: potted tomato at the 3 leaf stage (cultivar: Ponterosa), sprayed with test solution of prescribed concentration, inoculated after one day, judged five days after inoculation

SMILES | insecticidal effect (control efficacy) [1] | insecticidal effect (mortality) [2] | controlling effect (control efficacy, lesion area compared with untreated plot) [3] | controlling effect (control efficacy, lesion area compared with untreated plot) [4] | controlling effect (control efficacy, lesion area compared with untreated plot) [5] | controlling effect (control efficacy, lesion area compared with untreated plot) [6]
Cc1nn(C)c(Cl)c1NC(=O)Cc1ccc(C(C)(C)C)cc1 [Compound A-9] | A (Mortality 100%) | A (Mortality 100%) | A (control efficacy 100 to 90%) | A (control efficacy 100 to 90%) | A (control efficacy 100 to 90%) | 
CCn1ncc(NC(=O)Cc2ccc(OCC(=O)OC)cc2)c1Cl [Compound A-55] |  |  | A (control efficacy 100 to 90%) |  | A (control efficacy 100 to 90%) | 
Cc1nn(C)c(Cl)c1NC(=O)Cc1ccc(OCC=Cc2ccccc2)cc1 [Compound B-59] |  |  |  |  |  | A (control efficacy 100 to 90%)
